# According to patent US20070275104A1, “Food Compositions and Methods of Treating Periodontal Disease” (priority 2006, published 2007):
# Not every entry of the source has a single result; some have several. They are shown here; other results are not. The source may hold further records. Results that share an entry appear to be repeats on other runs, samples or individuals.
# Biological target: Recombinant MMP-9
# Assay: MMP-9 enzyme assay with DQ gelatin fluorescent substrate
# Details: 22° C., EAB pH 7.0, soluble phase of extracts
# Protocol: From the studies of repeated activity and lack of interference, we were able to identify three lead ingredients for further development (A, C, D; A & B were two forms of the same dried extract). These were tested in a second laboratory, using a more sensitive in vitro (non-cellular) assay system, again for individual activity and interference/synergy among MMP-inhibitors and the IL-1-inhibitor against all three forms of MMP. These assays used enzyme kinetic dose curves to determine the IC50 of each extract, Doxycyclin, and combinations of extracts (including the IL-1-inhibitor, e.g., Rosehips).
# MMP-2 and MMP-9: Recombinant MMP-2 and MMP-9 were expressed as recombinant proteins and purified in constitutively active forms.
# DQ gelatin: A highly labeled porcine gelatin substrate (Molecular Probes, Eugine, Oreg.) was used for the enzyme assays with MMP-2 and MMP-9. The substrate degradation was measured with λex at 494 nm and λem at 515 nm
# To reduce any self-degradation of the gelatin substrate, all assays were performed at 22° C. The enzyme assay buffer (EAB) used for MMP-2, MMP-9, and MMP-8 was 50 mM Tris, pH 7.0, 200 mM NaCl, 5 mM CaCl2, 1 μM ZnCl2, 0.05% Brij 35. Assays were performed under conditions where the substrates were not rate limiting. […]
structure (smiles),measurement,value
"C[C@H]1c2cccc(O)c2C(O)=C2C(=O)[C@]3(O)C(O)=C(C(N)=O)C(=O)[C@@H](N(C)C)[C@@H]3[C@@H](O)[C@@H]21 [DOX, Doxycycline]",IC50 for MMP-9,˜40 μg/ml and 40 μg/ml
